Experimental data taken from the supplement of paper PMC12819154, “High-throughput peptide-centric local stability assay extends protein–ligand identification to membrane proteins, tissues and bacteria” (Nature Structural & Molecular Biology, 2025).
This is one part of the list. Most values lie at the level of the controls, where differences are scatter.

By UniProt entry, the sequences of proteins in these tests, tags left out. Where a name states a change or a piece, a line headed by the entry shows the natural chain unless it says otherwise.
UniProt Q9HC38: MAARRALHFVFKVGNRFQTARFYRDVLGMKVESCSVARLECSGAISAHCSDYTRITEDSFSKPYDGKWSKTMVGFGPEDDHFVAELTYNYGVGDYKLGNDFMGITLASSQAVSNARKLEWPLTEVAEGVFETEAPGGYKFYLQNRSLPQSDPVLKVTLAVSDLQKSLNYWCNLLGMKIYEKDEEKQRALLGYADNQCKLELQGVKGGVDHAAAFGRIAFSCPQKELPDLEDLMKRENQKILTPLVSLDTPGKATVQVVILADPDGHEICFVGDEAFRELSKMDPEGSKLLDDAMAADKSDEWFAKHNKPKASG
UniProt Q9HCE1: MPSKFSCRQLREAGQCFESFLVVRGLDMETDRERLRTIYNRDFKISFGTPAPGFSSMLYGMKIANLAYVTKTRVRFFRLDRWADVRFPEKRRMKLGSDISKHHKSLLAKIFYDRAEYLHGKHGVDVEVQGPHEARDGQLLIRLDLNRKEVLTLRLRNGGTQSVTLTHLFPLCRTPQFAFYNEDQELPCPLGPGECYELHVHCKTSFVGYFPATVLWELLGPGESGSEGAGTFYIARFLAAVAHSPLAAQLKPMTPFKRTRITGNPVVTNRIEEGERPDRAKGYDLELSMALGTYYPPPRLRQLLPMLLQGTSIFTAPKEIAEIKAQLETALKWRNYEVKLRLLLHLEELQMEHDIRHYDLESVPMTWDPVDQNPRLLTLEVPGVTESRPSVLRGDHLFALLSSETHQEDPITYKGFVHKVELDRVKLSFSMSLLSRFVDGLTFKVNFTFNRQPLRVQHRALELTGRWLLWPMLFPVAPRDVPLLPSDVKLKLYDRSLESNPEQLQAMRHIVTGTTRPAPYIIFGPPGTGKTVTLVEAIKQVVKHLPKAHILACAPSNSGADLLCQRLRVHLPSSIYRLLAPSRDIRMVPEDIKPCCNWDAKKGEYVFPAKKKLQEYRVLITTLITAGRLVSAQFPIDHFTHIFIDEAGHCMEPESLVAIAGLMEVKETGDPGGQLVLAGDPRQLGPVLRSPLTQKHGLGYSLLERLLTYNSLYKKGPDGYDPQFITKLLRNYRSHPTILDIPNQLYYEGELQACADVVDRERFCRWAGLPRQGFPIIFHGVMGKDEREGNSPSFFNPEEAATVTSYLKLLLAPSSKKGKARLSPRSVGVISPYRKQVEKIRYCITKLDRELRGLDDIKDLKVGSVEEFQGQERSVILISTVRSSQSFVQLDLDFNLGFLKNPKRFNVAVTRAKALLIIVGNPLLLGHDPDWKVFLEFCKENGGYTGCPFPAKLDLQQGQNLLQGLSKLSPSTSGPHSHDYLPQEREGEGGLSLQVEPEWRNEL
UniProt Q9NQG7: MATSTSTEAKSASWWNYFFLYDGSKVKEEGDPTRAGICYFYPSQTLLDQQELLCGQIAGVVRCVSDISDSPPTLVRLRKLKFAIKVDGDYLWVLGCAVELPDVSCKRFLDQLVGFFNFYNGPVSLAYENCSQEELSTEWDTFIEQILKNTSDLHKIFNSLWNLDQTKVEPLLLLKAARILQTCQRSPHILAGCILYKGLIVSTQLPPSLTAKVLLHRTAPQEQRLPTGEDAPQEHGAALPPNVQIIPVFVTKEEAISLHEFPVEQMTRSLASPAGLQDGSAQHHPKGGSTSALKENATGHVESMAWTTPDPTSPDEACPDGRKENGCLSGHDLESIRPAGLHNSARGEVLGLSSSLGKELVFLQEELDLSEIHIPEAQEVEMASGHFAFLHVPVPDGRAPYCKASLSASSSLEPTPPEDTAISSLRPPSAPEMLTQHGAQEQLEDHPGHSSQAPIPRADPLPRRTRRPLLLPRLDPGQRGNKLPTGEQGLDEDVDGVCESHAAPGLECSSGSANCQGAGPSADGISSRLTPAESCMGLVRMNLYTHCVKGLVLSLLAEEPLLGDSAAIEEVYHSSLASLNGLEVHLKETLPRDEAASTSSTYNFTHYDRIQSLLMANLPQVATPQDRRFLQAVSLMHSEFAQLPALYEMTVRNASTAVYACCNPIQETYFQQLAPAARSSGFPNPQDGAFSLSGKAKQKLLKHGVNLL
UniProt Q9H7L9: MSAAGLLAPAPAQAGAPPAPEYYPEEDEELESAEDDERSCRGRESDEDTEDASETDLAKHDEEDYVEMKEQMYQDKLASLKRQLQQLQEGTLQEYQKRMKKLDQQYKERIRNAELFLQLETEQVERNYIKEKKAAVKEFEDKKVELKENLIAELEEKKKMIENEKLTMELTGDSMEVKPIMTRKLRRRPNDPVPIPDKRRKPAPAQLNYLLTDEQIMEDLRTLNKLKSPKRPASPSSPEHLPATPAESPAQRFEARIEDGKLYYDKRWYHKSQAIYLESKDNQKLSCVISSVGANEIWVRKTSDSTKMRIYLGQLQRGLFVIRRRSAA
UniProt Q9H900: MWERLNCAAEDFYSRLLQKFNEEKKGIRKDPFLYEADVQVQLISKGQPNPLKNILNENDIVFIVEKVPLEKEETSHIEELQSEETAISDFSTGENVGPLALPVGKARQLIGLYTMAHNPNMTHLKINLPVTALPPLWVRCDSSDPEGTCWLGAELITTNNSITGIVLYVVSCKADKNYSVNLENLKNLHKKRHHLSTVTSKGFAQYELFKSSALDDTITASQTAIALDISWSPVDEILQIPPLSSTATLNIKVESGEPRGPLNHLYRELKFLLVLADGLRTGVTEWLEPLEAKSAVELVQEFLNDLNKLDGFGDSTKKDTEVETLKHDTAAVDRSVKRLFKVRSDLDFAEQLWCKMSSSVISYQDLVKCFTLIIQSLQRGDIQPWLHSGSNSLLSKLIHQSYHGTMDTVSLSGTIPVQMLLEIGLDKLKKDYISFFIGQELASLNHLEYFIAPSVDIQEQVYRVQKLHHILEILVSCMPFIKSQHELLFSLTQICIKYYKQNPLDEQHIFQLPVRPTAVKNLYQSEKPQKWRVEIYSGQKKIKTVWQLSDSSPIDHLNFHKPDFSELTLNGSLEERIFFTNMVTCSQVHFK
UniProt Q9H9Y6, whole entry: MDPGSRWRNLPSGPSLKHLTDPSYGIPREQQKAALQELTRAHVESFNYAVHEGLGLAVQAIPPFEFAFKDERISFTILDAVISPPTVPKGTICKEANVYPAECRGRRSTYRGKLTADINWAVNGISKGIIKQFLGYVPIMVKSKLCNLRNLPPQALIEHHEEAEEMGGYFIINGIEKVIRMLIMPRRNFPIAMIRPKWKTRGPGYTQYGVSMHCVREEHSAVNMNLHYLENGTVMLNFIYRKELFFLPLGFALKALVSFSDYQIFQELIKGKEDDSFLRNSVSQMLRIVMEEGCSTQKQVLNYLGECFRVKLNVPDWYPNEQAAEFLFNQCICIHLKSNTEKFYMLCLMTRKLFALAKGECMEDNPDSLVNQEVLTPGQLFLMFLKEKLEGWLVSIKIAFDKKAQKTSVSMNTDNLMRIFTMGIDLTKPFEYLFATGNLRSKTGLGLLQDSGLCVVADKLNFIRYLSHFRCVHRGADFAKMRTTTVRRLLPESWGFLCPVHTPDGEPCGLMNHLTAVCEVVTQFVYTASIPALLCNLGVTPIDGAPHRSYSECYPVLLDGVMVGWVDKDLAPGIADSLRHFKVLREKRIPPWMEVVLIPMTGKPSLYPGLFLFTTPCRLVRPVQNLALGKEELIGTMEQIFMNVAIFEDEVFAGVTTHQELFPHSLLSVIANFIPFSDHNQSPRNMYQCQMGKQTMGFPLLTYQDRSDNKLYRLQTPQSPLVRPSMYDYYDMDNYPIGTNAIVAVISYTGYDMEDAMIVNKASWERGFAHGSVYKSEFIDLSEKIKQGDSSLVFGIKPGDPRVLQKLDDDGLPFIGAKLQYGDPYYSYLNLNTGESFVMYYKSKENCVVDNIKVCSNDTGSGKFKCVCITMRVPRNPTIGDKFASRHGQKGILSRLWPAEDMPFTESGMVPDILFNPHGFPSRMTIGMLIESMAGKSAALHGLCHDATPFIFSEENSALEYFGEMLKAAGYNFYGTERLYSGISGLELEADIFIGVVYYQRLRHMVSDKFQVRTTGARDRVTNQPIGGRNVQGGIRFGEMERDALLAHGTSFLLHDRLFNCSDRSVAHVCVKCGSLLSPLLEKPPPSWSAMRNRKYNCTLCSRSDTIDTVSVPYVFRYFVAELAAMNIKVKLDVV
UniProt Q9H7Z7: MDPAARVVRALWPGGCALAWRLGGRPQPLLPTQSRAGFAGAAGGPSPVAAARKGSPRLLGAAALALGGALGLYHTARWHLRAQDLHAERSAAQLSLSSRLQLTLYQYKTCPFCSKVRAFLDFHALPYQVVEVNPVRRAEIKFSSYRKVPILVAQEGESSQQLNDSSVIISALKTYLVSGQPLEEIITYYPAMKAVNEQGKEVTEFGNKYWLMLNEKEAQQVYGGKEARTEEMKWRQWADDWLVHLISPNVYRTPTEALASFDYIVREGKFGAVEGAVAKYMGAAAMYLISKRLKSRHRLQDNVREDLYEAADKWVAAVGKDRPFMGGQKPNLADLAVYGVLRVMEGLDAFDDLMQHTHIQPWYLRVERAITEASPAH
UniProt Q9H9D4: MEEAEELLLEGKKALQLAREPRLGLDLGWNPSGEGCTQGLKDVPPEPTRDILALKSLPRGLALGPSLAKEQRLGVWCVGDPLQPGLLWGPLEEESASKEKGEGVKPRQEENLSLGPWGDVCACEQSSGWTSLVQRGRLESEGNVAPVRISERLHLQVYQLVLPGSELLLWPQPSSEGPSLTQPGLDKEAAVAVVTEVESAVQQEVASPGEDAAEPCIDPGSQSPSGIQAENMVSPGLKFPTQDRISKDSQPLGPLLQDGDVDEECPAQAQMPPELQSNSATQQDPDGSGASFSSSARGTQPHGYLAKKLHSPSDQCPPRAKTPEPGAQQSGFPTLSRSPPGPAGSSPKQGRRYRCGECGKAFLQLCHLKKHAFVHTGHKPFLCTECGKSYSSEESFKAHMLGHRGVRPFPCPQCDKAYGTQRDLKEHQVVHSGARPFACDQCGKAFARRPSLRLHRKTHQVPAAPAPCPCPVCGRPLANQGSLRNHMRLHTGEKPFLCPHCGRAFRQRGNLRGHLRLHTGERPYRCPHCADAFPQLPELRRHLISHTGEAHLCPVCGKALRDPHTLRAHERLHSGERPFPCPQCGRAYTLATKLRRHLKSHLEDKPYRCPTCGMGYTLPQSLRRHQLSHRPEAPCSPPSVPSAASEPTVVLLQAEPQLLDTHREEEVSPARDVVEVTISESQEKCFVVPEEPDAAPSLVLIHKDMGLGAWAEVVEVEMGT

compound: CN[C@@H]1C[C@H]2O[C@@](C)([C@@H]1OC)n1c3ccccc3c3c4c(c5c6ccccc6n2c5c31)C(=O)NC4 [staurosporine]; assay: log2 fold change of tryptic peptide abundance, ligand vs vehicle (limited proteolysis) (log2 ratio); higher = more trypsin-susceptible (destabilized); settings: ligand concentration: 20 uM; sample: K562 cleared lysate; digestion: 4 min, 22 C (HT-PELSA RT4min, Orbitrap Astral)

Target	log2 fold change
GLOD4 (peptide sequence: ALLGYADNQCK, peptide start residue: 188) (UniProt Q9HC38)	0.227
MOV10 (peptide sequence: LRVHLPSSIYR, peptide start residue: 567) (UniProt Q9HCE1)	0.662
HPS4 (peptide sequence: SLASPAGLQDGSAQHHPK, peptide start residue: 269) (UniProt Q9NQG7)	-0.185
SUDS3 (peptide sequence: IYLGQLQR, peptide start residue: 310) (UniProt Q9H7L9)	0.617
ZWILCH (peptide sequence: HHLSTVTSK, peptide start residue: 193) (UniProt Q9H900)	1.37
POLR1B (peptide sequence: KYNCTLCSR, peptide start residue: 1095) (UniProt Q9H9Y6)	0.347
PTGES2 (peptide sequence: AFLDFHALPYQVVEVNPVRR, peptide start residue: 118) (UniProt Q9H7Z7)	-0.198
UniProt Q9H9D4 (peptide sequence: GTQPHGYLAK, peptide start residue: 298)	0.447
